{"source": "ChEMBL document CHEMBL4837237", "about": "“Broomeanamides: Cyclic Octapeptides from an Isolate of the Fungicolous Ascomycete Sphaerostilbella broomeana from India” (J Nat Prod, 2021)", "tested_on": "Candida albicans", "assay": "Antifungal activity against Candida albicans ATCC 10231 assessed as fungal growth inhibition incubated for 48 hrs by alamarBlue dye based assay", "assay_type": "functional", "procedure,_shortened": "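Broth MIC, modified CLSI method. Overnight cultures diluted to OD600 0.8 in PBS, then 1000-fold in MOPS-buffered RPMI-1640. Exposed to serial dilutions from 0.25 to 128 μM. Growth read by adding 10% alamarBlue. S. aureus ATCC 43300: 24 h at 37 °C. C. albicans ATCC 10231: 48 h at 23 °C. C. neoformans H99: 48 h at 23 and at 37 °C. Controls: chlortetracycline + streptomycin (bacterium), amphotericin B (fungi).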"}
{"smiles": "C[C@@H]1[C@H](O)[C@@H](C)/C=C/C=C/C=C/C=C/C=C/C=C/C=C/[C@H](O[C@@H]2O[C@H](C)[C@@H](O)[C@H](N)[C@@H]2O)C[C@@H]2O[C@](O)(C[C@@H](O)C[C@@H](O)[C@H](O)CC[C@@H](O)C[C@@H](O)CC(=O)O[C@H]1C)C[C@H](O)[C@H]2C(=O)O", "note": "[AMPHOTERICIN B]", "values": [{"measurement": "MIC", "value": 1.7, "unit": "µg/mL"}]}
